These are yes or no findings as the source states them, for the method shown. In cells and extracts the contact can be indirect. Some entries that bind do so weakly or less than the wild type.
Target: adenylyl cyclase 5 (AC5), human (human (endogenous in adipose arterial myocytes)) (UniProt O95622)
Assay: proximity ligation; Duolink in situ PLA on freshly dissociated human male and female adipose arterial myocytes, fixed with 3% glyoxal and permeabilised; two primary antibodies; signal when proteins are within 40 nm; puncta per cell area

Sequences of proteins named here, by UniProt entry; tags and fusion partners are left off.
UniProt O95622: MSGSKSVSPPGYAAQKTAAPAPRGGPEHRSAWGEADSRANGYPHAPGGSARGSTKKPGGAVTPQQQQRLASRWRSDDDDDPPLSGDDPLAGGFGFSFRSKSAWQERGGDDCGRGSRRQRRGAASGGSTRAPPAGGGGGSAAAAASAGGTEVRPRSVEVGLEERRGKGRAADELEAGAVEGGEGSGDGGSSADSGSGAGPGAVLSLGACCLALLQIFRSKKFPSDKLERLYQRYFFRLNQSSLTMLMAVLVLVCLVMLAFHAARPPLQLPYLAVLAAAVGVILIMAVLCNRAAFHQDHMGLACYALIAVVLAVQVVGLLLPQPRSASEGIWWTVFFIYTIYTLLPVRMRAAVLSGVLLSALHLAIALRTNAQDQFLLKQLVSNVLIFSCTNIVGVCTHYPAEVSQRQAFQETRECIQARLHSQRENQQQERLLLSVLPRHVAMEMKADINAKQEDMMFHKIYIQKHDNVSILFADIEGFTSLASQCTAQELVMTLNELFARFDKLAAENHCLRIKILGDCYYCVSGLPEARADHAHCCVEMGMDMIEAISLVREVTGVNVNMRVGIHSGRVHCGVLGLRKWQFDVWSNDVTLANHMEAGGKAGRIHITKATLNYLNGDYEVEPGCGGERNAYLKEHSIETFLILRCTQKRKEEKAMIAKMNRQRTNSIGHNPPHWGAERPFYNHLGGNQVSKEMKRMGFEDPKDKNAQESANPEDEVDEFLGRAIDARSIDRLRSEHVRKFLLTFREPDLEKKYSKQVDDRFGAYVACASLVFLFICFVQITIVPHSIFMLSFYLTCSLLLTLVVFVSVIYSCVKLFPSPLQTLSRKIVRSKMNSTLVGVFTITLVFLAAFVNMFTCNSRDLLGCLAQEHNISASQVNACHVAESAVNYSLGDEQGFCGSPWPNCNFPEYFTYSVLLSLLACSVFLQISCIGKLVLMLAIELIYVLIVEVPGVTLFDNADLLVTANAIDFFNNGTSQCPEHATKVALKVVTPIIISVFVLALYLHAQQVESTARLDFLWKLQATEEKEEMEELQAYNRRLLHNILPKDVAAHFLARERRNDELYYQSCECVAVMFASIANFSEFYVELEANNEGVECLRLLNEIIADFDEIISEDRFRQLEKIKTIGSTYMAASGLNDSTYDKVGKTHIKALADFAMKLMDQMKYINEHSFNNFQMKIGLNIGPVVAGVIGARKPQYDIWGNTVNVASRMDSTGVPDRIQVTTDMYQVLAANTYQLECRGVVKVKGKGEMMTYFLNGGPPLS

binding: binds
B1: P2Y11 receptor, human (receptor, UniProt Q96G91 1-374)
chain: MAANVSGAKSCPANFLAAADDKLSGFQGDFLWPILVVEFLVAVASNGLALYRFSIRKQRPWHPAVVFSVQLAVSDLLCALTLPPLAAYLYPPKHWRYGEAACRLERFLFTCNLLGSVIFITCISLNRYLGIVHPFFARSHLRPKHAWAVSAAGWVLAALLAMPTLSFSHLKRPQQGAGNCSVARPEACIKCLGTADHGLAAYRAYSLVLAGLGCGLPLLLTLAAYGALGRAVLRSPGMTVAEKLRVAALVASGVALYASSYVPYHIMRVLNVDARRRWSTRCPSFADIAQATAALELGPYVGYQVMRGLMPLAFCVHPLLYMAAVPSLGCCCRHCPGYRDSWNPEDAKSTGQALPLNATAAPKPSEPQSRELSQ
